Measured values published in publication PMC7456482.
Results are given in words; binding and its absence hold for the method and conditions named. In cells and extracts the contact can be indirect. Some entries that bind do so weakly or less than the wild type.

The chains behind the UniProt entries cited, without tags or fusion partners.
UniProt P12813: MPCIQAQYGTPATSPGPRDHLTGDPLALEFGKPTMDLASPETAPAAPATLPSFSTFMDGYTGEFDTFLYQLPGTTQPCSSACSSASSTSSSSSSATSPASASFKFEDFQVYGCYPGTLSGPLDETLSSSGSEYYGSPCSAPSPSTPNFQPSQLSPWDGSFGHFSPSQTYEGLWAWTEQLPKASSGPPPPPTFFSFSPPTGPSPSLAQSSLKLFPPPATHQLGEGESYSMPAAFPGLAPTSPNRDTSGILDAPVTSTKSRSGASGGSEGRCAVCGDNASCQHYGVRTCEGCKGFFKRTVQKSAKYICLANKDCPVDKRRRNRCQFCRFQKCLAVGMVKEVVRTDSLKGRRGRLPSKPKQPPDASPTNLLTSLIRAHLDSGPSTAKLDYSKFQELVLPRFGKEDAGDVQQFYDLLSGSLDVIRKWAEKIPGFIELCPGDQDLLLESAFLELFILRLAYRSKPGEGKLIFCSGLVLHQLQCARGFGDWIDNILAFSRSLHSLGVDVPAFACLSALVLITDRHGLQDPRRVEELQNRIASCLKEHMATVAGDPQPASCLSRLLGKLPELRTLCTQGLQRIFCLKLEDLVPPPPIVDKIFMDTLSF

T1: Tumor necrosis factor receptor-associated factor 6 (mouse (endogenous in MODE-K)) (UniProt P70196)
T1 sequence: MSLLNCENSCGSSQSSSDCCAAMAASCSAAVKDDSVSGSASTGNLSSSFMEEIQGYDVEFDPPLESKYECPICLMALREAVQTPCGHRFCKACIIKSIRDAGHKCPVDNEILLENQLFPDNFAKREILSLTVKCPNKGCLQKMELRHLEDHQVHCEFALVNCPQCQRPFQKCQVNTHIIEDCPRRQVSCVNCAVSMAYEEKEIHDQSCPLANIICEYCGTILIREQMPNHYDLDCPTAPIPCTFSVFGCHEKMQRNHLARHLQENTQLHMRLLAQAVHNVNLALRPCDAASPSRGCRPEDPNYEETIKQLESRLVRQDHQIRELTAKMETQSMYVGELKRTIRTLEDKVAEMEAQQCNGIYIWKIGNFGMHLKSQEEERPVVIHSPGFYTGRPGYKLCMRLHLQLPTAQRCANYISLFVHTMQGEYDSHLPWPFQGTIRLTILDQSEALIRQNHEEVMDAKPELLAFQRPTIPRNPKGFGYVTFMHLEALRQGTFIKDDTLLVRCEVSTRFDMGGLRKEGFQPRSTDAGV


How the values were obtained:
[1] = target: T1, Tumor necrosis factor receptor-associated factor 6 (mouse (endogenous in MODE-K)); assay: co-IP; endogenous TRAF6 immunoprecipitated from MODE-K lysate (IP buffer, protein A/G beads), immunoblot for Nur77; cells treated with GPA
[2] = target: Nur77 (mouse (endogenous in MODE-K)) (UniProt P12813); assay: co-IP; endogenous Nur77 immunoprecipitated from MODE-K lysate (IP buffer, protein A/G beads), immunoblot for TRAF6 and p62; cells treated with GPA (1 mM, 6 h) and/or LPS (1 ug/ml, 3 h)

Row | binding [2] | Molecule | binding [1]
1 | – | Nur77 (from UniProt P12813 1-601) | binds
2 | binds | Tumor necrosis factor receptor-associated factor 6 (protein, UniProt P70196 1-530) MSLLNCENSCGSSQSSSDCCAAMAASCSAAVKDDSVSGSASTGNLSSSFMEEIQGYDVEFDPPLESKYECPICLMALREAVQTPCGHRFCKACIIKSIRDAGHKCPVDNEILLENQLFPDNFAKREILSLTVKCPNKGCLQKMELRHLEDHQVHCEFALVNCPQCQRPFQKCQVNTHIIEDCPRRQVSCVNCAVSMAYEEKEIHDQSCPLANIICEYCGTILIREQMPNHYDLDCPTAPIPCTFSVFGCHEKMQRNHLARHLQENTQLHMRLLAQAVHNVNLALRPCDAASPSRGCRPEDPNYEETIKQLESRLVRQDHQIRELTAKMETQSMYVGELKRTIRTLEDKVAEMEAQQCNGIYIWKIGNFGMHLKSQEEERPVVIHSPGFYTGRPGYKLCMRLHLQLPTAQRCANYISLFVHTMQGEYDSHLPWPFQGTIRLTILDQSEALIRQNHEEVMDAKPELLAFQRPTIPRNPKGFGYVTFMHLEALRQGTFIKDDTLLVRCEVSTRFDMGGLRKEGFQPRSTDAGV | –
